Reference: the M2OR odorant receptor database
This is a selection; strong and weak results do not stand in their true shares. Calls are pooled over several reports, among them a noisy single-well screen. The list shows a part of the results.

Experiments:
Settings in all cases: stereoisomer not certain
[1] = molecular target: T1, OR6K2 (Homo sapiens) (UniProt Q8NGY2)
T1 sequence (whole entry): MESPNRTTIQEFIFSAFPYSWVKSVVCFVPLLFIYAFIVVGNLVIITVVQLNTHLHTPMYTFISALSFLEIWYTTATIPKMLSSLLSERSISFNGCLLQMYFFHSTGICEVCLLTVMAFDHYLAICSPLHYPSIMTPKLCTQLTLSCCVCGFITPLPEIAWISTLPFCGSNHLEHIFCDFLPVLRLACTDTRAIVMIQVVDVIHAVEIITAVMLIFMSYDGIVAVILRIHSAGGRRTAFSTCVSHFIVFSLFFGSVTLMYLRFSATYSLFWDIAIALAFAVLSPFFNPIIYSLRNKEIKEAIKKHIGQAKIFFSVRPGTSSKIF
How it was run: (§1)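 Each receptor–molecule pair is labelled responsive or non-responsive (inactive) according to whether the original authors judged the measured signal statistically different from baseline. The data were taken from the main text and supplementary material of published papers and checked for typos and inconsistencies. Assay methods differed by source, with transient luciferase assays in mammalian cell lines being common.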

[2] = test system: T2, OR6K3
T2 sequence (whole entry): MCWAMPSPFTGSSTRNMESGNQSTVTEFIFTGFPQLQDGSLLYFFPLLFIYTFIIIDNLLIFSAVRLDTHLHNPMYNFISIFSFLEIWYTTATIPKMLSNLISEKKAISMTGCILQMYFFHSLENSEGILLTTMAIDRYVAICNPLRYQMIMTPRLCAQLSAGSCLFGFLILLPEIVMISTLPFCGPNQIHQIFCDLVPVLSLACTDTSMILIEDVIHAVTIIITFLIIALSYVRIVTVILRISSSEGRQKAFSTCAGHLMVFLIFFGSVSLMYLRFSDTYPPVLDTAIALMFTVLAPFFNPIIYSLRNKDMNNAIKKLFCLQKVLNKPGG
How it was run: as §1

[3] = test system: T3, OR6K3; remark: listed apart in the source
T3 sequence (whole entry): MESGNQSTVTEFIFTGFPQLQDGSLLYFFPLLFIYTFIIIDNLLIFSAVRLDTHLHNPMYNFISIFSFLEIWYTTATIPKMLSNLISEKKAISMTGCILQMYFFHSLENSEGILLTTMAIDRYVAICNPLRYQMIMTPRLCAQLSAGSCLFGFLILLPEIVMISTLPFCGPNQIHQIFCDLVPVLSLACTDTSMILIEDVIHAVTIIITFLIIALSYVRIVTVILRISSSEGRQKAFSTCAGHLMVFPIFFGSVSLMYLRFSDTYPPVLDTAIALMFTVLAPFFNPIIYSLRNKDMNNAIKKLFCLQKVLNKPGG
How it was run: as §1

[4] = test system: T4, OR6K6
T4 sequence (whole entry): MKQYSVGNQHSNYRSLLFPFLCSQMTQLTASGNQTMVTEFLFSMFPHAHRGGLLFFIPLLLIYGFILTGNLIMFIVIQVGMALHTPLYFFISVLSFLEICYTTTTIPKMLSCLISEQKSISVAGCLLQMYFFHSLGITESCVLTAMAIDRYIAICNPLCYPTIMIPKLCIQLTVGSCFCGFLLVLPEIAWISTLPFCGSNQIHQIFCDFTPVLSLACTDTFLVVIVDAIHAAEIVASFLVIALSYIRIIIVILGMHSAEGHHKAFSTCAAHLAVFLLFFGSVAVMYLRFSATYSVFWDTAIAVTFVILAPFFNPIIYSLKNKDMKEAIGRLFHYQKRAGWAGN
How it was run: as §1

[5] = test system: T5, OR6K6; remark: listed apart in the source
T5 sequence (whole entry): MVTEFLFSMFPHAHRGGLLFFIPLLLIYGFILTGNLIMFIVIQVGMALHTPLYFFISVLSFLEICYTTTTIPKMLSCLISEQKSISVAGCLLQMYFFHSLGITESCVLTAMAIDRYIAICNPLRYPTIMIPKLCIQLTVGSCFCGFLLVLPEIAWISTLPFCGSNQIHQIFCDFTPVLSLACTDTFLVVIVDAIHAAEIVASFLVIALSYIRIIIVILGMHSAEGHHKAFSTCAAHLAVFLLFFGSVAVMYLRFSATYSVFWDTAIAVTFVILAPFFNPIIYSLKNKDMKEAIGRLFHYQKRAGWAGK
How it was run: as §1

[6] = molecular target: T6, OR6M1 (Homo sapiens) (UniProt Q8NGM8)
T6 sequence (whole entry): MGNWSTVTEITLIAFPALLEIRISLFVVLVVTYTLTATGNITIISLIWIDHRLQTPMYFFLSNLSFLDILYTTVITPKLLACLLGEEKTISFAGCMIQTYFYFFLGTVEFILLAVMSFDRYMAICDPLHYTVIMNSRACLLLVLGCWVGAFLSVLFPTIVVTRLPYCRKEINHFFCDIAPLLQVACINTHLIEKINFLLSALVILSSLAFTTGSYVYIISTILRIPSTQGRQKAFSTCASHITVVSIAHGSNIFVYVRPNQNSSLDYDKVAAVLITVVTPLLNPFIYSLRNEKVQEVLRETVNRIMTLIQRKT
How it was run: as §1

[7] = test system: T7, OR6N1
T7 sequence (whole entry): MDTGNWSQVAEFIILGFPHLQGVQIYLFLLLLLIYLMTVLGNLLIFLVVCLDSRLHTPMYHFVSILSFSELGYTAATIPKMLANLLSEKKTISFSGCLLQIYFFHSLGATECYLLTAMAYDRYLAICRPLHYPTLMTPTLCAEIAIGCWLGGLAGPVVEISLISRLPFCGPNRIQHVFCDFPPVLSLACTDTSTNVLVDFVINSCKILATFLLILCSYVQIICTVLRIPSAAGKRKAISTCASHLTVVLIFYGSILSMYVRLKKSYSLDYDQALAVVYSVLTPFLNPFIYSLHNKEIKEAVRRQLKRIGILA
How it was run: as §1

[8] = molecular target: T8, OR6N2 (Homo sapiens) (UniProt Q8NGY6)
T8 sequence (whole entry): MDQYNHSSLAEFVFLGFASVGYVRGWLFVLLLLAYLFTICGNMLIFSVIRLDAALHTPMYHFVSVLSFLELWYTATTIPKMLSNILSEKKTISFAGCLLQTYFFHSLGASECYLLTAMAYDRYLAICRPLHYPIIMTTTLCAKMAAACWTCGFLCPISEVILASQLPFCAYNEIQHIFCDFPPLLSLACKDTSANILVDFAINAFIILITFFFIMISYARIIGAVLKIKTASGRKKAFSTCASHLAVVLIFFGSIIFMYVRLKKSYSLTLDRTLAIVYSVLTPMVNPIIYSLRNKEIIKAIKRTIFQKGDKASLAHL
How it was run: as §1

[9] = molecular target: T9, OR6P1 (Homo sapiens) (UniProt Q8NGX9)
T9 sequence (whole entry): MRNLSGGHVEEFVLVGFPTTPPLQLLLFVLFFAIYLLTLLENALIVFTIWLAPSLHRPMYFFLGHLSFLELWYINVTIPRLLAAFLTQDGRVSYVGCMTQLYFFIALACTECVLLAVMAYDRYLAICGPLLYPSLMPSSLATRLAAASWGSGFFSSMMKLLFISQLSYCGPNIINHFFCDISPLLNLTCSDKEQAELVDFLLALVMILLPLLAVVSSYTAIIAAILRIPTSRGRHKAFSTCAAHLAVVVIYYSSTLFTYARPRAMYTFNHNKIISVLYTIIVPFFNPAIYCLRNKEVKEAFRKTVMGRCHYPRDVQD
How it was run: as §1

[10] = test system: T10, OR6S1
T10 sequence (whole entry): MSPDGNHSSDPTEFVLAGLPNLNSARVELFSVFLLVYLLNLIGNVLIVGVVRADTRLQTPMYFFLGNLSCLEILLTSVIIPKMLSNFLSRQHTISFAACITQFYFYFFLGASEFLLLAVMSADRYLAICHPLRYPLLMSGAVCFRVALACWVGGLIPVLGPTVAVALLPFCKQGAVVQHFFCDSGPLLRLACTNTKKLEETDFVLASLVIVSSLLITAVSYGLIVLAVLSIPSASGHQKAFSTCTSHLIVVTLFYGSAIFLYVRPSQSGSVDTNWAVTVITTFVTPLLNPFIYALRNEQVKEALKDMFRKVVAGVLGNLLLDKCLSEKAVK
How it was run: as §1

[11] = test system: T11, OR6T1
T11 sequence (whole entry): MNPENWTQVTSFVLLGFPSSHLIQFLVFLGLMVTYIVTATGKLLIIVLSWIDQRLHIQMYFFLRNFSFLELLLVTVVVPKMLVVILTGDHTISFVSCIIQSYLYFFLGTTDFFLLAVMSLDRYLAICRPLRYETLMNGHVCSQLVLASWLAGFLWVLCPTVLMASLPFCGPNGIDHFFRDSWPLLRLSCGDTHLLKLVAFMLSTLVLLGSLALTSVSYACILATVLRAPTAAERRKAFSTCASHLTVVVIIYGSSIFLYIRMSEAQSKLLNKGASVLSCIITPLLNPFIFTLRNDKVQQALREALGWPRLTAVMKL
How it was run: as §1

[12] = test system: T12, OR6J1
T12 sequence (whole entry): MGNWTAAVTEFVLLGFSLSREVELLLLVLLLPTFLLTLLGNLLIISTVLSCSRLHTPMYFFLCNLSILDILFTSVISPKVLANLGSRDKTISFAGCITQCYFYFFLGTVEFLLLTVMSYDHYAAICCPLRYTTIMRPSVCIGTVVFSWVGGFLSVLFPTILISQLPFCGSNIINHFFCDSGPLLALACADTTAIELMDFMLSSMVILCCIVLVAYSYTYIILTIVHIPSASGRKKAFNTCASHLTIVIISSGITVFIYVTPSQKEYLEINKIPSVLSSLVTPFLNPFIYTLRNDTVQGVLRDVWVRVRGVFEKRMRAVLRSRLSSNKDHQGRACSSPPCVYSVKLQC
How it was run: as §1

[13] = molecular target: T13, OR6Q1 (Homo sapiens) (UniProt Q8NGQ2)
T13 sequence (whole entry): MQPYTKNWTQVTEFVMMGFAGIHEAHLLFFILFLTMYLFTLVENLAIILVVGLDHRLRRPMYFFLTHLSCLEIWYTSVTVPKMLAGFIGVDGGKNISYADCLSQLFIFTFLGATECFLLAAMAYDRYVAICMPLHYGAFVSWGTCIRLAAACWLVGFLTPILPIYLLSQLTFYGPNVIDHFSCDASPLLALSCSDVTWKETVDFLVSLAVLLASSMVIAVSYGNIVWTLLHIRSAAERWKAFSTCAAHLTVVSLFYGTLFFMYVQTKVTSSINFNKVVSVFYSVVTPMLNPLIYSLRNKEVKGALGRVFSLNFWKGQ
How it was run: as §1

Measured: odorant receptor agonist call;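 also: active if original authors judged signal statistically different from baseline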

CCCCCC(C)=O
inactive: [1] | [2] | [3] | [4] | [5] | [6] | [7] | [8] | [9] | [10] | [11]

c1cnccn1
inactive: [12] | [1] | [2] | [3] | [4] | [5] | [6] | [7] | [8] | [9] | [13] | [10] | [11]

CCCCCCCC=O
inactive: [12] | [1] | [2] | [3] | [4] | [5] | [6] | [7] | [8] | [9] | [13] | [10] | [11]

C=CC(C)(O)CCC=C(C)C (stereo not given)
inactive: [12] | [1] | [2] | [3] | [4] | [5] | [6] | [7] | [8] | [9] | [13] | [10] | [11]

CCCCO
inactive: [12] | [1] | [2] | [3] | [4] | [5] | [6] | [7] | [8] | [9] | [13] | [10] | [11]

CCCCCOC(C)=O
inactive: [12] | [1] | [2] | [3] | [4] | [5] | [6] | [7] | [8] | [9] | [10] | [11]
